# Reference: US20130254944A1, “Herbicide Tolerant Soybeans and Methods of Use” (PIONEER HI BRED INTERNATIONAL INC, priority 2012, published 2013)
# Test system: soybean having both the Als1 and Als2 mutations
# Experiment: Greenhouse postemergence test of ALS-inhibiting herbicides and isobole analysis, soybean with Als1 and Als2 mutations
# Format: in vivo
# Details: interaction of Als1 and Als2 mutations
# Protocol: Soybean lines having wild type als1 & 2 genes, the Als1 mutation, the Als2 mutation, or both the Als1 and Als2 mutations were evaluated for their response to various herbicides. Two seeds from each line were planted into 4-inch pots containing Redi-Earth potting mix (Sun Gro Horticulture Canada Ltd. 52130 RR65, Seba Beach, Alberta TOE 2B0), with two replications planted for each treatment. Pots were placed in flats at 15 pots/flat, and the resulting plants were grown in a greenhouse environment supplemented with lighting (16 hr photoperiod) for the duration of the test. Selected herbicides representing the mode of action that inhibits the acetolactate synthase enzyme, also known as the acetohydroxyacid synthase enzyme, were applied postemergence to soybean when soybean plants were at the V2 growth stage, which is the stage at which the first two trifoliolate leaves were expanded.
# Eleven active ingredients representing the five chemical families with herbicidal activity on the acetolactate synthase enzyme were tested. These herbicides can cause a phytotoxic response in wild type soybean plants. The five chemical families tested were sulfonylaminocarbonyltriazolinone (also known as triazolinone), imidazolinone, sulfonylurea, pyrimidinylthiobenzoate, and triazolopyrimidine. Application rates ranged from 0.5 times to eight times the currently labeled application rate for each active ingredient with spray application volume at 30 gallons/acre. The application rates tested were 0.5×, 1×, 2×, 4× and 8× the label rate for each herbicide. Herbicidal active ingredients were applied as formulated materials dispersed in water containing 0.25% nonionic surfactant (Trend® 90).
# The test was evaluated by visually scoring plant phenotype 14 days after the herbicides were applied. Controls consisted of soybean plants of the same variety that received no herbicide treatments for each of all the varieties tested. Soybean response was recorded on a zero to 100 visual scale in which zero is no phytotoxic response and 100 is plant death fourteen days after the herbicides were applied. Soybean response (percent phytotoxicity) to postemergence applications of herbicides inhibiting the acetolactate synthase enzyme test results are shown in Table 1.
# Results in Table 1 were evaluated using the isobole method for analyzing interactions. […] Here the biologically active agents that are being assessed for interaction (synergy) are gene mutations in soybean. The effectiveness of the genes in providing improved tolerance to ALS-inhibiting herbicides was assessed by applying increasing doses of herbicides to each soybean line with its mutation(s).
# An isobole reduces a dose response surface in three dimensional space to a two dimensional plot by fixing a defined response level (e.g., 50% response). The isobole plot is a graph in the Cartesian plane with a straight line connecting the isoeffective rates of the individual components of the combination. This straight line represents expected responses for zero interactive combinations. The isoeffective rate used to create the isobole is often the EC50, the rate estimated to elicit 50% response, but other ECx values can be used. Since the isobole method is based on the potency of the components of the combination, an experimental design testing a range of rates expected to elicit the full range of responses (e.g., 0 to maximum response) is best. (Ferry et al. (2005) 2005 Conference on Applied Statistics in Agriculture Proceedings pp 33-50, Manhattan, Kans., Kansas State Univ.; Green and Streibig (1993) Herbicide Mixtures, pp 117-134 in Herbicide Bioassays, Streibig and Hudsk Eds, CRC, Boca Raton, Fla.).
# Loglogistic dose response curves were fit to percent phytotoxicity response data using log 10 of dose (McCullagh and Nelder (1989) Generalized Linear Models, Chapman & Hall, London). Curves were fit using the logit link with normal errors. […]
smiles,measurement,setting,value
Cc1cc(C)nc(NC(=O)NS(=O)(=O)c2ccccc2C(=O)O)n1 [Sulfometuron],"Isobole Result, Als1 + Als2",isobole analysis based on EC10,Synergy
same,"Isobole Result, Als1 + Als2","isobole analysis based on EC10, listed as sulfometuron",Synergistic interaction
CC(C)C1(C)N=C(c2ncccc2C(=O)O)NC1=O (stereo not shown) [Imazapyr],"Isobole Result, Als1 + Als2",isobole analysis based on EC50,Synergy
same,"Isobole Result, Als1 + Als2","isobole analysis based on EC50, listed as imazapyr",Synergistic interaction
COc1cc(OC)nc(Sc2cccc(Cl)c2C(=O)O)n1 [Pyrithiobac sodium],"Isobole Result, Als1 + Als2",isobole analysis based on EC50,Synergy
same,"Isobole Result, Als1 + Als2","isobole analysis based on EC50, listed as pyrithiobac sodium",Synergistic interaction
COc1nc(C)nc(N(C)C(=O)NS(=O)(=O)c2ccccc2C(=O)O)n1 [Tribenuron],"Isobole Result, Als1 + Als2",isobole analysis based on EC10,Synergy
same,"Isobole Result, Als1 + Als2","isobole analysis based on EC10, listed as tribenuron",Synergistic interaction
CCS(=O)(=O)c1cccnc1S(=O)(=O)NC(=O)Nc1nc(OC)cc(OC)n1 [Rimsulfuron],"Isobole Result, Als1 + Als2",isobole analysis based on EC10,Synergy
same,"Isobole Result, Als1 + Als2","isobole analysis based on EC10, listed as rimsulfuron",Synergistic interaction
COc1cc(OC)nc(NC(=O)NS(=O)(=O)c2ncccc2C(=O)N(C)C)n1 [Nicosulfuron],"Isobole Result, Als1 + Als2",isobole analysis based on EC10,Probable Synergy
same,"Isobole Result, Als1 + Als2","isobole analysis based on EC10, listed as nicosulfuron",probable synergy
COc1nn(C(=O)NS(=O)(=O)c2ccccc2OC(F)(F)F)c(=O)n1C [Flucarbazone],"Isobole Result, Als1 + Als2",isobole analysis based on EC10,Synergy
same,"Isobole Result, Als1 + Als2","isobole analysis based on EC10, listed as flucarbazon",Synergistic interaction
CCc1cnc(C2=NC(C)(C(C)C)C(=O)N2)c(C(=O)O)c1 (stereo not shown) [Imazethapyr],"Isobole Result, Als1 + Als2",isobole analysis based on EC10,Possible Synergy
same,"Isobole Result, Als1 + Als2","isobole analysis based on EC10, listed as imazethapyr",possible synergy effect
